The target of experiment [1] is mouse LAG-3 overexpressed on CHO cells (mouse) (UniProt Q61790). Nature of the experiment: flow cytometry on CHO-mLAG-3 cells. In general terms: A flow cytometer gives signals particle by particle.
Experiment [2] has the same target. Nature of the experiment: flow cytometry (MFI) on CHO cells overexpressing mouse LAG-3, PE goat anti-human IgG.

By UniProt entry, the sequences of proteins in these tests, tags left out. Residues count along the entry.
UniProt Q61790, residues 24-521: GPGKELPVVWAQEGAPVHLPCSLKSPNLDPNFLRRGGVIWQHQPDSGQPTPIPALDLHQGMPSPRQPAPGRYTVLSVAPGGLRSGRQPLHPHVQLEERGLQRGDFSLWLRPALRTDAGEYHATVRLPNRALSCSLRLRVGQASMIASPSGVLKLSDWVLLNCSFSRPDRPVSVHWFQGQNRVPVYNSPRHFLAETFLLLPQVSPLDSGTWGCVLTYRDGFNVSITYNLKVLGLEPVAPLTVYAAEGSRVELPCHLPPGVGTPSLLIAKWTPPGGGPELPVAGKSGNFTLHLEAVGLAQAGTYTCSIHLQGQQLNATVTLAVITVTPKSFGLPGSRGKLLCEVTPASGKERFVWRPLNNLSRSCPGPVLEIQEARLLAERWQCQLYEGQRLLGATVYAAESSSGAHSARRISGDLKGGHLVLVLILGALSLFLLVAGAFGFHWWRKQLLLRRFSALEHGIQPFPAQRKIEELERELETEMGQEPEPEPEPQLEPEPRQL

These are yes or no findings as the source states them, for the method shown. Some entries that bind do so weakly or less than the wild type.

B1: ADI-31851 (antibody, human IgG4 S228P, kappa, F234A L235A, V domains shown)
VH: QLQLQESGPGLVKPSETLSLTCTVSGGSISSPDYYWGWIRQPPGKGLEWIGSIVYSGYTYYNPSLKSRVTISVDTSKNQFSLKLSSVTAADTAVYYCARVRTWDQSFDIWGQGTMVTVSS
VL: DIQMTQSPSSLSASVGDRVTITCQAGQDISNYLNWYQQKPGKAPKLLIYDASNLETGVPSRFSGSGSGTDFTFTISSLQPEDIATYYCQQVLELPPWTFGGGTKVEIKR
As for B1, the binding entry in experiment [1] and in experiment [2] was “binds” in each case.

Source of the values: patent US20210371529A1.
